The text below walks through data of patent US9694090B2, “Process for preparing hyperpolarized substrates and method for MRI” (priority 2010, dated 2017).

A short description of series [1]: DNP solid-state polarization signal and build-up (1.2 K, 3.35 T). Conditions: for Solid state signal: DNP at 1.2 K, 3.35 T; for Polarization of ester relative to the corresponding acid: solid state, compared with example a of the same number.
The nature of series [2]: Liquid state polarization after DNP and dissolution. The conditions noted are these: after 60 min DNP and dissolution in phosphate buffer.

Regarding `C=C(CC(=O)OCC)[13C](=O)OCC` [1-13C Itaconate diethyl ester], in series [1], the Solid state signal is reported as 340 area in arbitrary units divided by mmol 13C and the “Polarization of ester relative to the corresponding acid” value came to 2.3 times.

With `C=C(CC(=O)O)[13C](=O)O` [1-13C Itaconic acid, reference compound], in series [1], the Solid state signal was 150 area in arbitrary units divided by mmol 13C.

In the case of `CCO[13C](=O)C1CSC(=O)N1` (stereo not shown) [1-13C OTZ ethyl ester], in series [1], the Solid state signal was 380 area in arbitrary units divided by mmol 13C and the “Polarization of ester relative to the corresponding acid” value amounted to 1.2 times.

As for `O=C1N[C@H]([13C](=O)O)CS1` [1-13C OTZ, 1-13C-L-oxothiazolidine-4-carboxylic acid, reference compound], the Solid state signal in series [1] is 305 area in arbitrary units divided by mmol 13C.

In the case of `O=C1CCC([13C](=O)O)N1` (stereo not shown) [1-13C Pyroglutamic acid, reference compound], in series [1], the Solid state signal is 75 area in arbitrary units divided by mmol 13C.

Turning to `CCOC(=O)C1CCC(=O)N1` (stereo not shown) [1-13C pyroglutamic ethyl ester], in series [1], the Solid state signal is recorded as 350 area in arbitrary units divided by mmol 13C and the “Polarization of ester relative to the corresponding acid” value is listed as “more than 4.5 times”.

Consider `[2H][13C]([2H])(N)C(=O)O` [2-13C-d2-Glycine, reference compound], for which the Solid state signal in series [1] is 280 area in arbitrary units divided by mmol 13C. In series [2], this molecule showed a Liquid state polarization of 12.5%.

Take `[2H][13C]([2H])(NC(C)=O)C(=O)O` [2-13C-d2-N-acetyl glycine]: the Solid state signal in series [1] is listed as 376 area in arbitrary units divided by mmol 13C. Further, the Liquid state polarization in series [2] was determined as 21%.
